About 2,100 (0.66%) of roughly 320,000 compounds were called active. This list was built around the results that the source calls inconclusive (neither active nor inactive); the mix of calls is not that of the screen. Calls follow the shape of the dose curve; as a rule, active = well fitted inhibition curve with a large enough effect in the signal ratio, with a control signal flat (not every such curve was filed as active); inconclusive = small, poorly fitted or top-dose-only effect, or effect the other way, or a change in a side signal; inactive = flat fitted curve, though single readings scatter; the % refers to the signal ratio. A potency beside an inconclusive call is a rough fit, not a confirmed value.
Test: qHTS Assay for Lipid Storage Modulators in Drosophila S3 Cells
Conditions: BODIPY lipid droplet fluorescence, 18-24 h, cells fed with added oleic acid; lipid storage change, negative = inhibition: at 46.1 µM (top of the series) unless noted
Summary of the method: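 Drosophila S3 cells got compounds at several concentrations plus oleic acid (400 uM solution). Laser-scanning cytometry with 488 nm excitation read lipid droplets at 500-530 nm and cells at 575-640 nm. Percent activity was relative to 20 uM Triacsin C.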
% is scaled to controls: 0 for no effect and ±100 for the full control effect; potency is read from the fitted curve at half-maximal effect.

Row | Structure (SMILES) | Potency | lipid storage change, negative = inhibition | outcome
1 | CC(C)C(=O)Nc1nnc(SCC(=O)N2C(C)CCCC2C)s1 (centres undefined) | inconclusive: 10.3 µM [falling, single point] | – | –
2 | Fc1ccccc1-c1nnc2c3ccccc3nc(N3CCOCC3)n12 | inconclusive: 0.291 µM [falling, full curve, poor fit] | – | –
3 | Cc1c(C(=O)N2CCOCC2)sc(NC(=O)C(C)C)c1C#N | – | inconclusive: -145% | –
4 | Cc1cc(C)cc(N(CC(=O)NC2CCCC2)C(=O)CNC(=O)c2cccs2)c1 | inconclusive: 6.51 µM [activator, single point] | – | –
5 | Cc1ccc(/C=N/NC(=S)NC2CCCCC2)o1 | – | inconclusive: 9.72% | –
6 | COc1cc(N)ccc1NC(=O)c1cc2ccccc2o1 | inconclusive: 0.461 µM [activator, full curve] | – | –
7 | CCCN(CC(=O)Nc1ccccc1C)C(=O)c1ccc2ccccc2n1 | – | inconclusive | –
8 | O=C(Nc1ccc(N2CCOCC2)c(S(=O)(=O)Nc2ccccc2Cl)c1)c1ccccc1 | – | inconclusive: 22.2% | –
9 | CCCCCCSc1cc(-c2nc3ccc(Cl)cn3c2NCCCC)ccc1OC | – | inconclusive: 31.8% | –
10 | Cc1ccc(-n2nnc(-c3cc4ccccc4n3C)n2)cc1 | – | inconclusive: 18.5% | –
11 | COCc1ccc(C(=O)N2CCN(CC(=O)N3CCCC3)CC2)cc1 | inconclusive: 0.731 µM [activator, single point] | – | –
12 | CN1CCN(CCC(=O)N/N=C/c2ccccn2)CC1 | – | inconclusive: 165% | –
13 | O=c1c2ccccc2cnn1Cc1n[nH]c(=S)n1-c1ccccc1Cl | inconclusive: 32.6 µM [activator, single point] | – | –
14 | COc1ccc(-n2nc(C(=O)NCC(=O)N3CCCCC3)c3ccccc3c2=O)cc1 | inconclusive: 20.6 µM [falling, single point] | – | –
15 | Cc1ccc(S(=O)(=O)NC(=NC(C)C(=O)O)c2ccccc2)cc1 (centres undefined) | – | inconclusive: -2.42% | –
16 | CC(=O)NC12CC3CC(C1)CC(C(=O)NCC(=O)Nc1c(C)cc(C)cc1C)(C3)C2 | – | inconclusive: 9.38% | –
17 | Cc1ccnn1-c1ccc(C(=O)NCC(c2ccco2)N2CCCC2)cc1 (centres undefined) | inconclusive: 0.0046 µM [falling, full curve, poor fit] | – | –
18 | O=C(CNC(=O)c1ccccc1F)NCC(c1cccs1)N1CCOCC1 (centres undefined) | – | inconclusive: 48.3% | –
19 | O=C(O)c1ccccc1NS(=O)(=O)c1cccc2nsnc12 | inconclusive: 29.1 µM [falling, single point] | – | –
20 | O=C(NC(=S)Nc1ccc(N2CCCCC2)c(Cl)c1)c1ccc2c(c1)OCCO2 | – | inconclusive: 79.4% | –
21 | C#CC[N+](C)(C)CC#Cc1ccc(C)cc1 | – | inconclusive: -7% | –
22 | CCCCOc1ccc(C2/C(=C(/O)c3ccc4c(c3)CC(C)O4)C(=O)C(=O)N2CCCN2CCOCC2)cc1OC (centres undefined) | – | inconclusive: -100% | –
23 | O=C(Cn1cc(SCc2ccc(F)cc2)c2ccccc21)N1CCOCC1 | – | inconclusive: -16.5% | –

Row | Structure (SMILES) | Potency | lipid storage change, negative = inhibition | outcome
24 | Cc1oc(C(C)(C)C)c(CN2CCOCC2)c1C(=O)O | – | inconclusive: 19.7% | –
25 | CCn1c(O)c(C=NC2CCCC2)sc1=S | – | inconclusive: -9.64% | –
26 | CCOC(=O)C1=NNC2C(=O)N(Cc3ccccc3)C(=O)C12 (centres undefined) | – | inconclusive: 9.3% | –
27 | NC(=O)[C@H]1CC2(CC(c3cccc(NC(=O)COc4ccc(Cl)cc4)c3)=NO2)CN1C(=O)Cc1ccc([N+](=O)[O-])cc1 (some centres undefined) | – | inconclusive: -22.5% | –
28 | Cc1cc(C)c2cc(CN(CCN3CCCC3)C(=O)Nc3ccc(F)cc3)c(=O)[nH]c2c1 | – | inconclusive: -5.48% | –
29 | O=C(N/C(=C/c1ccccc1)C(=O)N1CCCCC1)c1ccco1 | inconclusive: 23.1 µM [activator, single point] | – | –
30 | O=C(NCCc1cn[nH]c1)C1CCC(=O)N(CCc2cccc(F)c2)C1 (centres undefined) | inconclusive: 0.58 µM [falling, single point] | – | –
31 | CC1(C)CC(NC(=O)c2cccc([N+](=O)[O-])c2)CC(C)(C)N1 | – | inconclusive: -48.7% | –
32 | O=C(NCCc1c[nH]c2ccccc12)C(=O)NCC1OCCN1S(=O)(=O)c1ccc(Cl)cc1 (centres undefined) | – | inconclusive: 2.82% | –
33 | CCc1nc2ccccc2c(C(=O)Nc2cccc(C)c2)c1C | inconclusive: 29.1 µM [activator, partial curve] | – | –
34 | CCN(CC)S(=O)(=O)c1ccc2oc(SCC(=O)NC3CC3)nc2c1 | – | inconclusive: -2.28% | –
35 | CC(=O)NC(=S)Nc1ccc(S(=O)(=O)Nc2nc(C)cc(C)n2)cc1 | – | inconclusive: -37.2% [cytotoxic] [at 0.369 µM] | –
36 | NS(=O)(=O)c1cccc(NC(=O)COc2ncnc3c2cnn3-c2ccccc2)c1 | – | inconclusive: -43.1% [cytotoxic] [at 0.00295 µM] | –
37 | O=C(c1c(F)cccc1F)N(C1CCCCC1)C1CCCCC1 | – | – | inactive [at 46.1 µM]
38 | Cc1ccc(C(=O)N2CCOCC2)cc1[N+](=O)[O-] | – | inconclusive: -14.4% | –
39 | O=C1/C(=C/c2ccncc2)N=C2CCCCCN12 | – | inconclusive: 18.6% | –
40 | CCOc1ccc(NC(=O)CN2CCN(CC(=O)Nc3cccc(F)c3)CC2)cc1 | – | inconclusive: 6.08% | –
41 | O=C(c1ccc(F)cc1)N1CCN(C2CCCCC2)CC1 | – | inconclusive: 34.5% | –
42 | Cc1ccc(C(c2nnnn2C(C)(C)C)N2CCc3ccccc3C2)cc1 (centres undefined) | inconclusive: 2.06 µM [falling, full curve, poor fit] | – | –
43 | Cn1c(SCC(=O)Nc2cccc(S(=O)(=O)NC3=NCCCCC3)c2)nnc1-c1ccncc1 | – | inconclusive: -27.5% | –
44 | CC(C)(C)c1ccc(C(=O)Nc2ccc([N+](=O)[O-])cn2)cc1 | – | inconclusive: 11.1% | –
45 | O=C(CSc1nc2sc3c(c2c(=O)n1-c1ccccc1)CCCC3)NCc1ccco1 | – | inconclusive: -31.4% | –
46 | C=CCn1c(NCc2ccc3c(c2)OCO3)nc2ccccc21 | inconclusive: 0.731 µM [activator, partial curve] | – | –

Complete entries, looked up by structure:
`O=C(CSc1nc2sc3c(c2c(=O)n1-c1ccccc1)CCCC3)NCc1ccco1` in the list: lipid storage change, negative = inhibition: inconclusive: -31.4%
`Cn1c(SCC(=O)Nc2cccc(S(=O)(=O)NC3=NCCCCC3)c2)nnc1-c1ccncc1` in the list: lipid storage change, negative = inhibition: inconclusive: -27.5%
`O=C(NCCc1c[nH]c2ccccc12)C(=O)NCC1OCCN1S(=O)(=O)c1ccc(Cl)cc1` (centres undefined) in the list: lipid storage change, negative = inhibition: inconclusive: 2.82%
`O=C(N/C(=C/c1ccccc1)C(=O)N1CCCCC1)c1ccco1` in the list: Potency: inconclusive: 23.1 µM [activator, single point]

(further entries)

Row | Structure (SMILES) | Potency | lipid storage change, negative = inhibition | outcome
47 | COCCOC(=O)c1[nH]c2c(c1C)C(=O)C(C(=O)OC)C(C)C2 (centres undefined) | – | inconclusive: 15.9% | –
48 | C#CCOCCOCCOCCNc1nc(N2CCN(C(=O)[C@H]([C@@H](C)CC)n3cc(CCCN=C(N)N)nn3)CC2)nc(N2CCN(C(=O)[C@H](CCCCN)n3cc(CC(C)O)nn3)CC2)n1 (some centres undefined) | – | inconclusive: 26% | –
49 | O=C(NC(=S)Nc1nc2c(ccc3ccccc32)s1)c1cccs1 | inconclusive: 6.51 µM [activator, single point] | – | –
50 | CC(Sc1nnc(CN2CCCC2)n1Cc1ccccc1)C(=O)Nc1ccccc1 (centres undefined) | inconclusive: 6.51 µM [falling, single point] | – | –
51 | CC1C(c2ccccc2)=[N+]([O-])C2(CCCC2)N1O (centres undefined) | inconclusive: 0.58 µM [falling, full curve, poor fit] | – | –
52 | COc1ccc(NC(=O)c2nnn(Cc3ccc(SC)cc3)c2N)c(OC)c1 | – | inconclusive: 30.4% | –
53 | Cc1ccc(SC[C@H](Cc2ccccc2)N2CCN(C)CCC2=O)cc1 | inconclusive: 0.0052 µM [falling, full curve, poor fit] | – | –
54 | Nc1nc(NC(=O)c2cccnc2)nn1-c1ccccc1 | inconclusive: 29.1 µM [activator, single point] | – | –
55 | O=C(O)CC(c1ccccc1)n1cnnn1 (centres undefined) | – | inconclusive: -23.8% | –
56 | Nc1c(C(=O)CSc2nc(-c3ccccc3)cs2)c(=O)[nH]c(=O)n1C1CC1 | inconclusive: 29.1 µM [activator, single point] | – | –
57 | COc1ccc(C(=O)N/C(=C\c2cn(S(=O)(=O)N(C)C)c3ccccc23)C(=O)NCCCN2CCOCC2)cc1 | – | inconclusive: 97.5% | –
58 | CC(C)Nc1nc(NC(C)C)nc(C(=O)OCCO)n1 | – | inconclusive: -15.4% | –
59 | COCCNC(=O)c1onc(CS(=O)(=O)c2cc(C)cc(C)c2)c1C(=O)NCCOC | – | inconclusive: 45.3% | –
60 | Oc1ccc(N=C/C=C/c2cccc(Br)c2)cc1-c1nc2ccccc2s1 | inconclusive: 29.1 µM [falling, single point] | – | –
61 | CCCCN(C)C(=O)c1oc2ccc(S(=O)(=O)N3CCCCCC3)cc2c1C | inconclusive: 32.6 µM [falling, partial curve, poor fit] | – | –
62 | C=CCN1C(=O)CSc2ccc(C(=O)OCC)cc21 | – | inconclusive: -7.5% | –
63 | Cc1ccc(NC(=O)COC(=O)c2c(-c3ccccc3)noc2C)cc1 | inconclusive: 29.1 µM [falling, single point] | – | –
64 | CCOC(=O)c1c(C)[nH]c(C)c1S(=O)(=O)N1CCN(c2cccc(C)c2)C(C)C1 (centres undefined) | inconclusive: 0.731 µM [falling, single point] | – | –
65 | O=C(CN1CCc2ccccc2C1)Nc1ccc(Br)cc1 | – | inconclusive: 140% | –
66 | O=C(OC[C@H]1O[C@@H](OC(=O)c2cc(O)c(O)c(OC(=O)c3cc(O)c(O)c(O)c3)c2)[C@H](OC(=O)c2cc(O)c(O)c(OC(=O)c3cc(O)c(O)c(O)c3)c2)[C@@H](OC(=O)c2cc(O)c(O)c(OC(=O)c3cc(O)c(O)c(O)c3)c2)[C@@H]1OC(=O)c1cc(O)c(O)c(OC(=O)c2cc(O)c(O)c(O)c2)c1)c1cc(O)c(O)c(OC(=O)c2cc(O)c(O)c(O)c2)c1 | inconclusive: 13 µM [activator, partial curve, poor fit] | – | –
67 | O=S(=O)(c1ccccc1)C1(S(=O)(=O)c2ccccc2)CCCC1 | inconclusive: 0.58 µM [falling, partial curve, poor fit] | – | –
68 | CCn1cc(C(=O)NCCc2ccc(Cl)cc2)c(=O)c2ccc(C)nc21 | inconclusive: 23.1 µM [activator, single point] | – | –
69 | CC1CCCCC12NC(=O)N(CC(=O)NCCc1ccc(F)cc1)C2=O (centres undefined) | inconclusive: 16.4 µM [activator, partial curve] | – | –
